Data from US20230157952A1, “METHOD FOR IMPROVING THE STABILITY OF A PHARMACEUTICAL COMPOSITION COMPRISING A HIGH PENETRATION DRUG, AND THE PHARMACEUTICAL COMPOSITION OBTAINED THEREFROM” (Techfields Inc., priority 2020, published 2023).
Some results were stated once for a whole list of compounds, not compound by compound.

Assay: Effect of temperature (and pH) on the stability of the solution (purity)
Type: physicochemical
Conditions: 5% solution with 1 equivalent sodium acetate in 25% ethanol, at 25° C. and 5° C.

| Substance | Time the solution can be stored |
| --- | --- |
| H-Ala-Pro-Gly-Pro-Arg(NO2)—OCH(CH3)2•HCl (APGPR; Arg(NO2) isopropyl ester, HCl salt; printed: Ala-Pro-Gly-Pro-Arg) [T-2] | more than 1 years |
| H-Val-Pro-Asp[OCH(CH3)2]-Pro-Arg(NO2)—OCH(CH3)2•HCl [T-3] | more than 1 years |
| H-Val-Pro-Gly-Pro-Arg(NO2)—OCH(CH3)2•HCl (VPGPR; Arg(NO2) isopropyl ester, HCl salt; printed: Val-Pro-Gly-Pro-Arg) | more than 1 years |
